Laboratory results from article PMC9359432.
No constants are given. Whether binding was seen depends on the method and setting. Binding seen in cells or lysates may run through a third protein. Some results given as binding are weak or reduced against the parent protein; the word gives no strength. Tags and fused reporters may be left off the sequences shown.

The chains behind the UniProt entries cited, without tags or fusion partners.
UniProt P11142: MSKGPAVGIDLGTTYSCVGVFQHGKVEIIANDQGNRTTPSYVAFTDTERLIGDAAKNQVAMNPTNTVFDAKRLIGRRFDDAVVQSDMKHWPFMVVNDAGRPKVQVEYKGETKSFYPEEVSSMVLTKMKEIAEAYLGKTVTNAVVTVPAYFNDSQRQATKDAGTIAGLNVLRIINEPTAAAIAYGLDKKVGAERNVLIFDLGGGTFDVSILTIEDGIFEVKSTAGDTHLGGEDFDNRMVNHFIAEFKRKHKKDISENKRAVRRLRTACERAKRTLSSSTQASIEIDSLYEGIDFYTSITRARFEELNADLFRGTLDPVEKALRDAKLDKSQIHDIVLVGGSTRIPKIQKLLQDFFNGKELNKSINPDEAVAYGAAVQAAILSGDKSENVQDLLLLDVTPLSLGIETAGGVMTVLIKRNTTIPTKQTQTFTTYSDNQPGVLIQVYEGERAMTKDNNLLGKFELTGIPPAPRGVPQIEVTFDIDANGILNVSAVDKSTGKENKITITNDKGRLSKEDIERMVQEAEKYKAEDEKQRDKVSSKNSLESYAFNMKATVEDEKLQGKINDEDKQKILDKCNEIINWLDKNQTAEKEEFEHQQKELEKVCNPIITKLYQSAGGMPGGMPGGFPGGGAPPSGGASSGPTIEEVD

Target: T1, CCDC102B-Flag (coiled-coil domain containing 102B with C-terminal 3×FLAG tag) (human (cDNA of MDA-MB-231)) (UniProt Q68D86)
T1 sequence: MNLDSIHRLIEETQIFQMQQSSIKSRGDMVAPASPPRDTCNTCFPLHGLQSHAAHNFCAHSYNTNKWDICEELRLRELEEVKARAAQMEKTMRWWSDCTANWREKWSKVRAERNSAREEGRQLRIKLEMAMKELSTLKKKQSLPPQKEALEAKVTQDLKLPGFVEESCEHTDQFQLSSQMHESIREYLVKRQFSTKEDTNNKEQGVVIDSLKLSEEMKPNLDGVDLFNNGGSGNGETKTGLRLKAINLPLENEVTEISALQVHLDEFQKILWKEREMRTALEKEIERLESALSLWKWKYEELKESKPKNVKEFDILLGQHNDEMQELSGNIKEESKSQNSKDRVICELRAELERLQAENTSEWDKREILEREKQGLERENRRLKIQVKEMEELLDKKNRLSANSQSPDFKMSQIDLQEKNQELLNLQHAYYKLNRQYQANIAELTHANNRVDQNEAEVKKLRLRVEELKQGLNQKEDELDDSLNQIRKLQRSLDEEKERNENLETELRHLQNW
Experiment: co-IP; MDA-MB-231 cells stably overexpressing CCDC102B-Flag or control; lysates in IP lysis buffer on magnetic beads overnight at 4°C, western blot; cells in complete or serum-free medium for 24 h, with or without RACK1 overexpression

- binding: binds
Substance: HSPA8 (from UniProt P11142 1-646)
